Data published in publication PMC5998563.
These are yes or no findings as the source states them, for the method shown. In cells and extracts the contact can be indirect. A result given as binding can be weak or reduced; the word gives no strength. For some of these results: Tags and fused reporters may be left off the sequences shown. Blank lines part the entries; values can stand above or below the molecule they belong to.

The chains behind the UniProt entries cited, without tags or fusion partners. Where a name states a change or a piece, a line headed by the entry shows the natural chain unless it says otherwise.
UniProt Q60932: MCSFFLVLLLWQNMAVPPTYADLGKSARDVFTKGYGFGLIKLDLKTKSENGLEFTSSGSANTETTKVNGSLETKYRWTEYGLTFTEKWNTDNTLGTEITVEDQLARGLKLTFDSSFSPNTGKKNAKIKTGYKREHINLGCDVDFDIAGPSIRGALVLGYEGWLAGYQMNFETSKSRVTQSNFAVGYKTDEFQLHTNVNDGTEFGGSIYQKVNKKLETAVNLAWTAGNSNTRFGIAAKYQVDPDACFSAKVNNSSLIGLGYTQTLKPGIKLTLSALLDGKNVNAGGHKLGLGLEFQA
UniProt P11881: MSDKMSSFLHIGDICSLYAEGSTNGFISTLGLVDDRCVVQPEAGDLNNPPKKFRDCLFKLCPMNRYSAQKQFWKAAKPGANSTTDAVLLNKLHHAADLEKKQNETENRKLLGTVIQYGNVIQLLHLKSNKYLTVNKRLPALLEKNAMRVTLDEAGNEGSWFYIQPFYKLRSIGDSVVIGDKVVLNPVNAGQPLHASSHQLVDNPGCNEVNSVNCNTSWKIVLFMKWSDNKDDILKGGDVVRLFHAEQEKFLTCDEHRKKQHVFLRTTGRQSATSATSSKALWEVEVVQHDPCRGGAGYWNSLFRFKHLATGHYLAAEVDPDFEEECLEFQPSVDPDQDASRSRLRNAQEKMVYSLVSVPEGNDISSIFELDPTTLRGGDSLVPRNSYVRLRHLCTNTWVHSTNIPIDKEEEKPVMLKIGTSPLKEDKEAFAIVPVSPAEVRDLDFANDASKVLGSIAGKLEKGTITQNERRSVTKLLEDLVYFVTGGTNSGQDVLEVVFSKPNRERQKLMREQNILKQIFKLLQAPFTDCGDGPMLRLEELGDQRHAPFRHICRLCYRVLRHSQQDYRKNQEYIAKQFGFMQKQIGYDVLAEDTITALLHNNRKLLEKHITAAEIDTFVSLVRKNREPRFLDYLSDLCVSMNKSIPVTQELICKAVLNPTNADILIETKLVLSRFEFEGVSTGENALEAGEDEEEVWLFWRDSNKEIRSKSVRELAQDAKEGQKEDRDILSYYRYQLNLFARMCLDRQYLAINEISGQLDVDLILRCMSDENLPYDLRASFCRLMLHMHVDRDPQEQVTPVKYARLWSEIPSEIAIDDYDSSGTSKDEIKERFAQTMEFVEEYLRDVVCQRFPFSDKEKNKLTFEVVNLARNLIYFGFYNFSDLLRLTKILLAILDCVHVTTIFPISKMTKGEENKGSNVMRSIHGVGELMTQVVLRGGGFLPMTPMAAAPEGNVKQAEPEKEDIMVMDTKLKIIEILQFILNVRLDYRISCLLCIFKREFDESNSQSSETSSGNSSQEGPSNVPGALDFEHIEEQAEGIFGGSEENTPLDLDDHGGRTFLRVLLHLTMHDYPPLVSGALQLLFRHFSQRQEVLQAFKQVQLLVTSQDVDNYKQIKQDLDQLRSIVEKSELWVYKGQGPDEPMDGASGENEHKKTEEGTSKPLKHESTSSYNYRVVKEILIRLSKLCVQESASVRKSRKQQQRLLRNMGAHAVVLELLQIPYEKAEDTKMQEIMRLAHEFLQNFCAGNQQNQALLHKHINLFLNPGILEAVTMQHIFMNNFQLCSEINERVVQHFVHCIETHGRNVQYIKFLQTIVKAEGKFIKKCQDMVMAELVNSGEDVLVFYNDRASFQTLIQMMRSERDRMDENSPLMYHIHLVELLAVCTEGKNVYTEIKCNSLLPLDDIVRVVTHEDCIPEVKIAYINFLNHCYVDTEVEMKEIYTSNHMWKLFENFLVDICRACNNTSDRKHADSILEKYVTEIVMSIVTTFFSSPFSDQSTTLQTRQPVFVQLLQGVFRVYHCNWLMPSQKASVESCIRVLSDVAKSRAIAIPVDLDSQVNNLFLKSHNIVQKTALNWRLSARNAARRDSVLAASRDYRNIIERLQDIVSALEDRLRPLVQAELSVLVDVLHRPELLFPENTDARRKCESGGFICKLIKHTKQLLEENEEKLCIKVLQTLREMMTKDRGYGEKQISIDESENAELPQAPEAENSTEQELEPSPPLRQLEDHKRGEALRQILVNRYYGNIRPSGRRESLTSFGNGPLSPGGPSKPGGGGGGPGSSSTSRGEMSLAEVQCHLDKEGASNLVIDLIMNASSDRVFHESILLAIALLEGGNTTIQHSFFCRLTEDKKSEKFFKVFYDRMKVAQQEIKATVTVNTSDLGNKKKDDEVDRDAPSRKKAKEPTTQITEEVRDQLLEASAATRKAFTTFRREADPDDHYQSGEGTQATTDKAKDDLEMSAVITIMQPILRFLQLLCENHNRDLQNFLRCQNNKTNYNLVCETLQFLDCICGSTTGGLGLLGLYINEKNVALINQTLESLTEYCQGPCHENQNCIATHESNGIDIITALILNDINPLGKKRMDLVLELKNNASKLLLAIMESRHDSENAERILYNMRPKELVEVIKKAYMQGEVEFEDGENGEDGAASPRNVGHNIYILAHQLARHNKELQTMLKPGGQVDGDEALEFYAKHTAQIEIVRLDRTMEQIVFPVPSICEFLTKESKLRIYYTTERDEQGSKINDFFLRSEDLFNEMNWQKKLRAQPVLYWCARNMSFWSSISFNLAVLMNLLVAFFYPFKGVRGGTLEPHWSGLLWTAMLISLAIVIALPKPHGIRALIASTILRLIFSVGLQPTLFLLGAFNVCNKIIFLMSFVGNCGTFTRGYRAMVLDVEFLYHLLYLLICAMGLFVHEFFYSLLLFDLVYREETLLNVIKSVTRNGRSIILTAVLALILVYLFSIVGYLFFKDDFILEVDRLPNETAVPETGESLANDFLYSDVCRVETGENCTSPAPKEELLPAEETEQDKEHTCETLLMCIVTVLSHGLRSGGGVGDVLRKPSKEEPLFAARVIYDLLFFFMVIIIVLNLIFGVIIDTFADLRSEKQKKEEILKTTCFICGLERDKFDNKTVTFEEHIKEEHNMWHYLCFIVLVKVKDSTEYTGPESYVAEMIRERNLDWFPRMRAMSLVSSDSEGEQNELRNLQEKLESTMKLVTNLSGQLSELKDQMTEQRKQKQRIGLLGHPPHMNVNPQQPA

Key:
[1] = target: VDAC1 (mouse skeletal muscle) (mouse (endogenous in skeletal muscle)) (UniProt Q60932); assay: proximity ligation; in situ PLA on paraffin-embedded sections of gastrocnemius of WT and REDD1 KO mice treated for 5 h with DEX; bright-field revelation, ten fields per muscle
[2] = target: voltage-dependent anion channel (VDAC) (human (endogenous in primary myoblasts)); assay: proximity ligation; Duolink II in situ PLA between endogenous proteins in human primary myoblasts transfected with control siRNA or siRNA against REDD1; spots per nucleus quantified with Blobfinder
[3] = target: inositol trisphosphate receptor (IP3R) (human (endogenous in primary myoblasts)); assay: proximity ligation; Duolink II in situ PLA in human myoblasts transfected with empty vector (pCMV) or mycREDD1; cells fixed with 4% formaldehyde, permeabilized with 0.1% Triton X100; fluorescence read-out
[4] = target: voltage-dependent anion channel (VDAC) (human (endogenous in primary myoblasts)); assay: as above

binding [1]: binds
Molecule: IP3R1 (mouse skeletal muscle) (from UniProt P11881 1-2749)

binding [2]: binds
B1: Hexokinase II (HKII) (enzyme, UniProt P52789 1-917)
chain: MIASHLLAYFFTELNHDQVQKVDQYLYHMRLSDETLLEISKRFRKEMEKGLGATTHPTAAVKMLPTFVRSTPDGTEHGEFLALDLGGTNFRVLWVKVTDNGLQKVEMENQIYAIPEDIMRGSGTQLFDHIAECLANFMDKLQIKDKKLPLGFTFSFPCHQTKLDESFLVSWTKGFKSSGVEGRDVVALIRKAIQRRGDFDIDIVAVVNDTVGTMMTCGYDDHNCEIGLIVGTGSNACYMEEMRHIDMVEGDEGRMCINMEWGAFGDDGSLNDIRTEFDQEIDMGSLNPGKQLFEKMISGMYMGELVRLILVKMAKEELLFGGKLSPELLNTGRFETKDISDIEGEKDGIRKAREVLMRLGLDPTQEDCVATHRICQIVSTRSASLCAATLAAVLQRIKENKGEERLRSTIGVDGSVYKKHPHFAKRLHKTVRRLVPGCDVRFLRSEDGSGKGAAMVTAVAYRLADQHRARQKTLEHLQLSHDQLLEVKRRMKVEMERGLSKETHASAPVKMLPTYVCATPDGTEKGDFLALDLGGTNFRVLLVRVRNGKWGGVEMHNKIYAIPQEVMHGTGDELFDHIVQCIADFLEYMGMKGVSLPLGFTFSFPCQQNSLDESILLKWTKGFKASGCEGEDVVTLLKEAIHRREEFDLDVVAVVNDTVGTMMTCGFEDPHCEVGLIVGTGSNACYMEEMRNVELVEGEEGRMCVNMEWGAFGDNGCLDDFRTEFDVAVDELSLNPGKQRFEKMISGMYLGEIVRNILIDFTKRGLLFRGRISERLKTRGIFETKFLSQIESDCLALLQVRAILQHLGLESTCDDSIIVKEVCTVVARRAAQLCGAGMAAVVDRIRENRGLDALKVTVGVDGTLYKLHPHFAKVMHETVKDLAPKCDVSFLQSEDGSGKGAALITAVACRIREAGQR

binding [3]: binds | binding [4]: binds
B2: murine REDD1 fused to Myc (protein, UniProt Q9D3F7 1-229)
chain: MPSLWDRFSSSSSSSSSSRTPAADRPPRSAWGSAAREEGLDRCASLESSDCESLDSSNSGFGPEEDSSYLDGVSLPDFELLSDPEDEHLCANLMQLLQESLSQARLGSRRPARLLMPSQLVSQVGKELLRLAYSEPCGLRGALLDVCVEQGKSCHSVAQLALDPSLVPTFQLTLVLRLDSRLWPKIQGLLSSANSSLVPGYSQSLTLSTGFRVIKKKLYSSEQLLIEEC
